US20060147922A1, “Novel diagnostic and therapeutic methods and reagents therefor” (priority 2002, published 2006)
Results are given in words; binding and its absence hold for the method and conditions named. Binding seen in cells or lysates may run through a third protein. Some entries that bind do so weakly or less than the wild type. For some of these results: Where a sequence is shown, tags or fusion partners need not be part of it.

Sequences of proteins named here, by UniProt entry; tags and fusion partners are left off. A change or cut given only in a name is not applied to a line headed by its entry.
UniProt P52294: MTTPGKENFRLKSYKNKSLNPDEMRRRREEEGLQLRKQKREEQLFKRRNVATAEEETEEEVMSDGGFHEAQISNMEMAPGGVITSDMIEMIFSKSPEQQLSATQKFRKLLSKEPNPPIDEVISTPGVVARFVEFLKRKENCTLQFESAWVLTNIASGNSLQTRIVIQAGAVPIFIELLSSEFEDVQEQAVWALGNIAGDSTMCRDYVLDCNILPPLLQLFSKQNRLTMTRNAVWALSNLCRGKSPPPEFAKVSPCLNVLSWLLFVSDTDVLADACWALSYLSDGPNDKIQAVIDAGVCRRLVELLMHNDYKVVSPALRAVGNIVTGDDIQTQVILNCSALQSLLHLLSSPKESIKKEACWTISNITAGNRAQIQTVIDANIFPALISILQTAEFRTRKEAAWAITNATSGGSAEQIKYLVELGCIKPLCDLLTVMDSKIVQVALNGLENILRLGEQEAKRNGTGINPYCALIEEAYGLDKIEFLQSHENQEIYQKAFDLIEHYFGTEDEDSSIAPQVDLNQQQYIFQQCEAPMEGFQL
UniProt P06401: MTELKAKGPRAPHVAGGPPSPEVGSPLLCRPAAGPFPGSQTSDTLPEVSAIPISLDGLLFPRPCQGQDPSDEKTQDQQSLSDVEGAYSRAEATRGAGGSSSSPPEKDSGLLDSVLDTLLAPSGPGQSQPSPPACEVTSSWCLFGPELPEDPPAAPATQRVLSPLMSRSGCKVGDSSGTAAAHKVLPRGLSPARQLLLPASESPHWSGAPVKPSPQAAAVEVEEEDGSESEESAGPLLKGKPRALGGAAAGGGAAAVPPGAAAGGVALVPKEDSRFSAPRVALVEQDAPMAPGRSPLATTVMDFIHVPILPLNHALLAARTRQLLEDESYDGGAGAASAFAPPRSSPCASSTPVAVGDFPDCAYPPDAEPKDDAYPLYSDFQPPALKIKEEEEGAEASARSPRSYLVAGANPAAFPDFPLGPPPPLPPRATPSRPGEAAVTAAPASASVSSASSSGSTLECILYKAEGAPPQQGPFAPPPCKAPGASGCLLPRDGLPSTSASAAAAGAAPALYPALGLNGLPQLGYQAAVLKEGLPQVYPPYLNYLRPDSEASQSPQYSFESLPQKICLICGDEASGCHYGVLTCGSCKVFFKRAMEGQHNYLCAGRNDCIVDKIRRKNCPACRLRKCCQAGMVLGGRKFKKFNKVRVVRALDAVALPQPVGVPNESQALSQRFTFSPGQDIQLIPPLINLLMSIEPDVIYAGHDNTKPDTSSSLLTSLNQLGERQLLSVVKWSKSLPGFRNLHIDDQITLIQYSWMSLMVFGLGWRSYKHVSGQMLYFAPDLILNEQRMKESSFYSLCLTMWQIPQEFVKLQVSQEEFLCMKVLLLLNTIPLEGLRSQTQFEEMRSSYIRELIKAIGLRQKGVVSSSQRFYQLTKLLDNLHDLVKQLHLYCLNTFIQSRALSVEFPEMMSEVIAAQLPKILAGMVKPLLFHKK
UniProt O96017: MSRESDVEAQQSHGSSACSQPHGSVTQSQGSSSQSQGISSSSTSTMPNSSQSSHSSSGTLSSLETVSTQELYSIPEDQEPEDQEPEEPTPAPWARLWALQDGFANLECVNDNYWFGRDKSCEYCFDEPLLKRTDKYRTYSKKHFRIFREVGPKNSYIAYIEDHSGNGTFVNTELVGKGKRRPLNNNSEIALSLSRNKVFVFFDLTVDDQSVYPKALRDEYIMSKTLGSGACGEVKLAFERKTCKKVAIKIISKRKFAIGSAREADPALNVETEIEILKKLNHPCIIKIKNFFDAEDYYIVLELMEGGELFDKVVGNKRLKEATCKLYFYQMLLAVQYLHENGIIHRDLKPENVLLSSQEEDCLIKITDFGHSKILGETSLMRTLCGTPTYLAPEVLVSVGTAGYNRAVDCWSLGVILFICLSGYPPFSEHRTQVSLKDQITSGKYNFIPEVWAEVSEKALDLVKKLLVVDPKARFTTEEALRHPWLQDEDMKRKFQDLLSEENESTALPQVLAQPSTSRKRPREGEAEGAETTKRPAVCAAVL
UniProt Q15788: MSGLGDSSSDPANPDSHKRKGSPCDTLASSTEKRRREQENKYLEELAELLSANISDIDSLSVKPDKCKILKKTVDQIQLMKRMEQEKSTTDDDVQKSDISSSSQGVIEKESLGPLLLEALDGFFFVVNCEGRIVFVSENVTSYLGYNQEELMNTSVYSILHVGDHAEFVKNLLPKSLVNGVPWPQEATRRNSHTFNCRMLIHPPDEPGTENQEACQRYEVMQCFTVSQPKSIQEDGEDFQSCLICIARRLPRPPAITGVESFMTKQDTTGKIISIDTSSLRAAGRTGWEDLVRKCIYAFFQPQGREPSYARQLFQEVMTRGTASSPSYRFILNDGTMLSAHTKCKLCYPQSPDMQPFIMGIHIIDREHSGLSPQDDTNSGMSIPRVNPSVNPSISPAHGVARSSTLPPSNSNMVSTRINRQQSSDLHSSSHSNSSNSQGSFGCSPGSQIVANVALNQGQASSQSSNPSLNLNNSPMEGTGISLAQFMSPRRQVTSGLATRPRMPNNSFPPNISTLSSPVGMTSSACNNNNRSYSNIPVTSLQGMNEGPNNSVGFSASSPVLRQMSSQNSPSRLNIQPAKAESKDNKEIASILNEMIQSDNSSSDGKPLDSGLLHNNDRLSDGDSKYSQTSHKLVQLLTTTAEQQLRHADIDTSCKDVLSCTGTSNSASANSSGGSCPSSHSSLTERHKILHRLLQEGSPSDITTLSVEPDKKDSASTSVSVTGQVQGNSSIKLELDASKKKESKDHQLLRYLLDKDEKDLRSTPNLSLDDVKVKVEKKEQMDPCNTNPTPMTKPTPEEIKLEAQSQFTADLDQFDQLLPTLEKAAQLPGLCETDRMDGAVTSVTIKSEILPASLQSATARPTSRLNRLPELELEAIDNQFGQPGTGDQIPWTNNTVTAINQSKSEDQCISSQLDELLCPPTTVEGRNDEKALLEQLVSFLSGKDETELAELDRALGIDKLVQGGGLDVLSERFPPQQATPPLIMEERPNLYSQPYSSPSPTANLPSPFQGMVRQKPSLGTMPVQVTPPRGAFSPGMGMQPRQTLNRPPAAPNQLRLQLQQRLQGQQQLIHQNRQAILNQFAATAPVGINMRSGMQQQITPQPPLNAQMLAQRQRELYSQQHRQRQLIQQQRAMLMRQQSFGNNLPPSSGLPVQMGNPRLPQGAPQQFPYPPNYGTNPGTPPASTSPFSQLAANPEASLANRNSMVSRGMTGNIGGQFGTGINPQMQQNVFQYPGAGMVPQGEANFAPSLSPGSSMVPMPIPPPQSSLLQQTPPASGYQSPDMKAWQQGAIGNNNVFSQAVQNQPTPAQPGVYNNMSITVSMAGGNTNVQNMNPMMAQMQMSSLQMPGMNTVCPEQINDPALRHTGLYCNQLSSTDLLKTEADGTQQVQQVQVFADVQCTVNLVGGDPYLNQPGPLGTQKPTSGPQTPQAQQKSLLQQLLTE

Key:
[1] = biological target: GST fused to amino acids 263-538 of human importin α5 (NPI-1) (human) (UniProt P52294); test: GST pull-down of IVT 35S-EDD
[2] = biological target: GST-PR(CDE) fusion protein (human PR B aa 456-933) (human) (UniProt P06401); test: figure title (GST-PR pull-downs)
[3] = biological target: T1, GST-CIB fusion protein (full-length CIB in pGEX2T) (human) (UniProt Q99828); test: GST-CIB pull-down of IVT 35S-EDD
T1 sequence: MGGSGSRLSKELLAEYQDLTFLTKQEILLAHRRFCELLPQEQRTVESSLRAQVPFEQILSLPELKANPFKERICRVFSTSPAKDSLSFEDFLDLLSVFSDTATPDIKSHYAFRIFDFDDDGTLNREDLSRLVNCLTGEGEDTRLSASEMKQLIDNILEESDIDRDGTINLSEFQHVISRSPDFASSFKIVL

[4] = biological target: GST-PR(CDE) fusion protein (human PR B aa 456-933) (human) (UniProt P06401); test: GST-PR(CDE) pull-down, EDD western blot
[5] = biological target: GST fused to amino acids 263-538 of human importin α5 (NPI-1) (human) (UniProt P52294); test: GST pull-down from cell lysates, EDD western blot
[6] = biological target: GST-PR(CDE) fusion protein (human PR B aa 456-933) (human) (UniProt P06401); test: GST-PR pull-down from T-47D extracts, EDD western blot
[7] = biological target: GSTchk2-N (GST fused to chk2 aa 1-225) (human) (UniProt O96017); test: GSTchk2-N pull-down from MCF-7 cells, EDD western blot
[8] = biological target: T1, GST-CIB fusion protein (full-length CIB in pGEX2T) (human); test: GST-CIB pull-down from MCF-7 nuclear extracts (discussion)
[9] = biological target: GSTchk2-N (GST fused to chk2 aa 1-225) (human) (UniProt O96017); test: GSTchk2-N pull-down from HeLa nuclear extract, MS sequencing
[10] = biological target: GST fused to amino acids 263-538 of human importin α5 (NPI-1) (human) (UniProt P52294); test: GST-importin α5 pull-down from cell extracts, EDD western blot
[11] = biological target: T1, GST-CIB fusion protein (full-length CIB in pGEX2T) (human); test: GST-CIB pull-down from MCF-7 nuclear extracts, EDD western blot
[12] = biological target: GSTchk2-N (GST fused to chk2 aa 1-225) (human) (UniProt O96017); test: GSTchk2-N pull-down from MCF-7 nuclear extracts, EDD western blot
[13] = biological target: GSTchk2-N (GST fused to chk2 aa 1-225) (human) (UniProt O96017); test: GSTCHK2-N pull-down from MCF7 whole cell extracts, EDD western blot
[14] = biological target: GST fused to amino acids 263-538 of human importin α5 (NPI-1) (human) (UniProt P52294); test: figure title (yeast two-hybrid, GST pull-down, co-immunoprecipitation)
[15] = biological target: GSTchk2-N (GST fused to chk2 aa 1-225) (human) (UniProt O96017); test: GSTchk2-N pull-down from MCF-7 nuclear extracts with or without phleomycin
[16] = biological target: T1, GST-CIB fusion protein (full-length CIB in pGEX2T) (human); test: GST-CIB pull-down from lysates of MCF-7 cells treated with DNA damaging agents
[17] = biological target: GSTchk2-N (GST fused to chk2 aa 1-225) (human) (UniProt O96017); test: GSTCHK2-N pull-down of IVT 35S-EDDF6
[18] = biological target: GSTchk2-N (GST fused to chk2 aa 1-225) (human) (UniProt O96017); test: GSTchk2-N pull-down of IVT 35S-EDD deletion mutants
[19] = biological target: GST-PR(CDE) fusion protein (human PR B aa 456-933) (human) (UniProt P06401); test: GST-PR(CDE) pull-down of IVT 35S-SRC-1

Measured: binding

EDD protein, full length (aa 1-2799) (from UniProt O95071 1-2799)
not listed: [17] | [18] | [19]
binds: all other assays above

EDDF6 (EDD aa 889-2526; EDDF5 without the Hect domain) (from UniProt O95071 889-2526)
binds: [17] | [18]

SRC-1 (in vitro translated, from pCR3.1-SRC1A) (from UniProt Q15788 1-1441)
binds: [19]
